The source of these data is publication PMC7808939.

The chains behind the UniProt entries cited, without tags or fusion partners. Where a name states a change or a piece, a line headed by the entry shows the natural chain unless it says otherwise.
UniProt P30281: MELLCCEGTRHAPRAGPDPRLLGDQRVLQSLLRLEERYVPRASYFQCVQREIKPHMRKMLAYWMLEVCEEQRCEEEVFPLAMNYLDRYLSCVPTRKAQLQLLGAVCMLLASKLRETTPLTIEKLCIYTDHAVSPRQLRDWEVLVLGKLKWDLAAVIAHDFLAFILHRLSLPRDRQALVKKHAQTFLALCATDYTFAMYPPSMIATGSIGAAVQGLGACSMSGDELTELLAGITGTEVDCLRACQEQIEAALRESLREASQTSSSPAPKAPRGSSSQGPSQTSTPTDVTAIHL
UniProt Q9WTX6: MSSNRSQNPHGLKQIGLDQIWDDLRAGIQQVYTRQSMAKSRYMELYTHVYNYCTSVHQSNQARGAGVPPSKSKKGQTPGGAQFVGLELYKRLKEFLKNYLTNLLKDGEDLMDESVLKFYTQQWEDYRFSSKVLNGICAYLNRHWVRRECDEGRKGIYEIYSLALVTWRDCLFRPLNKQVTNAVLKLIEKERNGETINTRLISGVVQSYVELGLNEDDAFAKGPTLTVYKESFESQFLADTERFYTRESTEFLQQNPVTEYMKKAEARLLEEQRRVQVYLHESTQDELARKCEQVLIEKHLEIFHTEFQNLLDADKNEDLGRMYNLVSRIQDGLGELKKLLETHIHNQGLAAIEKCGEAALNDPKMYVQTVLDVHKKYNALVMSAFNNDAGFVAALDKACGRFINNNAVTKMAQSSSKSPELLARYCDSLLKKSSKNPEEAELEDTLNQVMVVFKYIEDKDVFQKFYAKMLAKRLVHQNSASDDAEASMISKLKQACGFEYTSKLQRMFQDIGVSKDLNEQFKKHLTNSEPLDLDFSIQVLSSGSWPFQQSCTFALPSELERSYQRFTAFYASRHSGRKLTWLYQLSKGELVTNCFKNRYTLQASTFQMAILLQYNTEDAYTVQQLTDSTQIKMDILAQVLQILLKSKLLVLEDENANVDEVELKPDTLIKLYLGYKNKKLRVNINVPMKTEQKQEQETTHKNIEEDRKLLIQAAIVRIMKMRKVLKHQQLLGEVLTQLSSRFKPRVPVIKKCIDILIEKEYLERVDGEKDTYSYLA
UniProt P30280: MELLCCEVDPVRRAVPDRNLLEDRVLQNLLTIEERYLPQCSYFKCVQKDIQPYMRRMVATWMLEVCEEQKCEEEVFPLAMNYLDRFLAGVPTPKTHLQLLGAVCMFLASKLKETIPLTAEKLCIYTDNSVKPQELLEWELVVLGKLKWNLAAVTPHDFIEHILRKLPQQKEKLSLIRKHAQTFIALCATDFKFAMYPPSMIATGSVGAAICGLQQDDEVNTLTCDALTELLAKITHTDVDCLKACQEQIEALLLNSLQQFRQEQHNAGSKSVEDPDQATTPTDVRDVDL
UniProt P25322: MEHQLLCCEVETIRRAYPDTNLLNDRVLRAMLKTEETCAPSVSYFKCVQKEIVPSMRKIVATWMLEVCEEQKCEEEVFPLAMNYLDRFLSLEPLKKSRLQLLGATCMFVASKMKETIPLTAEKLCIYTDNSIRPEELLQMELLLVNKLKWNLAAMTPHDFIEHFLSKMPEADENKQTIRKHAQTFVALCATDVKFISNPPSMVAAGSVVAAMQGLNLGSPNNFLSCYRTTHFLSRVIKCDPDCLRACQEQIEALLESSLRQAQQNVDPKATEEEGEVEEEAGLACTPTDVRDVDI

These are yes or no findings as the source states them, for the method shown. For some of these results: Binding seen in cells or lysates may run through a third protein. Some entries that bind do so weakly or less than the wild type. For some of these results: Tags and fused reporters may be left off the sequences shown.

For experiment [1], the target named is T1, endogenous Fbxl8 (Raji cells) (human (endogenous in Raji)) (UniProt Q96CD0).
T1 sequence: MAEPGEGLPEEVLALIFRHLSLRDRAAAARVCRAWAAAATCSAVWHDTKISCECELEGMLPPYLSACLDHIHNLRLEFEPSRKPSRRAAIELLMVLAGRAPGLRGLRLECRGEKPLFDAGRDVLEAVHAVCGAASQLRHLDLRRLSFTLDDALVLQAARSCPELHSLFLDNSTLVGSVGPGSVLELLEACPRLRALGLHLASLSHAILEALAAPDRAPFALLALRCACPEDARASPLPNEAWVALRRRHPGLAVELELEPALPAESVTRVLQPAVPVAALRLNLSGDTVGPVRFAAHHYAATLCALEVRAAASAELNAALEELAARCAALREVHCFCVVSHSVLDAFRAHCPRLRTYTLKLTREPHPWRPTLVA
Description: co-IP; endogenous proteins, Raji Burkitt's lymphoma cells (Figs. S1D-E).

The target in a further experiment is T2, Flag-Fbxl8 (NIH3T3) (UniProt Q8CIG9).
T2 sequence: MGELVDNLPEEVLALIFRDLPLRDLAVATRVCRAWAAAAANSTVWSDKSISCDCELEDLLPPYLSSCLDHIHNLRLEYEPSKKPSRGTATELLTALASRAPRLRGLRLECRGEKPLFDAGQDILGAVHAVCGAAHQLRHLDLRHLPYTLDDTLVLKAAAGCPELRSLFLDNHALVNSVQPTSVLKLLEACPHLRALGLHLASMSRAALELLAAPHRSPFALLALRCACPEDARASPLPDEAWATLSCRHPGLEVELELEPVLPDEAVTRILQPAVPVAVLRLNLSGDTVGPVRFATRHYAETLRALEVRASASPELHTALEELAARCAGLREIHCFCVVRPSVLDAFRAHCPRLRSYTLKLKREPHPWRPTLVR
The experiment in a line: co-IP; NIH3T3 cells transfected with Flag-Fbxl8, MG132 (20 μM) for 4 h; anti-Flag beads; blot for Cul1, Skp1, Rbx1.

The target of experiment [2] is T3, Flag-Fbxl8 (Sf9, purified) (UniProt Q8CIG9).
T3 sequence: T2 sequence
The experiment in a line: pull-down; in vitro binding: Flag-Fbxl8 or Flag-Fbxo4 purified on anti Flag beads from sf9, incubated 4 h with cyclin D3/CDK4 or cyclin D2/CDK4 purified from sf9; washed 5 times with Tween20 lysis buffer (50 mM HEPES pH 8.0, 150 mM NaCl, 0.1% Tween 20); western blot; both purified.

The target in experiment [3] is T4, endogenous Fbxl8 (NIH3T3 cells) (mouse (endogenous in NIH3T3)) (UniProt Q8CIG9).
T4 sequence: T2 sequence
The experiment in a line: co-IP; endogenous proteins, NIH3T3 lysate, MG132 (20 μM) for 4 h; normal IgG or an antibody specific for Fbxl8; blot for cyclin D3, D2, D1.

Turning to “endogenous cyclin D3 (Raji cells) (from UniProt P30281 1-292)”, the binding entry in experiment [1] is “binds”. With “Cul1 (NIH3T3 cells) (from UniProt Q9WTX6 1-776)”, the binding entry in the experiment with Flag-Fbxl8 (NIH3T3) is given as “binds”.

Take “cyclin D2/CDK4 (Sf9, purified) (from UniProt P30280 1-289; P30285 1-303) (complex)”: in experiment [2], the binding result is given as “no binding”.

For “endogenous cyclin D1 (NIH3T3 cells) (from UniProt P25322 1-295)”, the binding result in experiment [3] was “no binding”.
